Reference: the supplement of paper PMC10849652
This is one part of the list.

Amino acid sequences for entries named in this document (tags omitted). A change or cut given only in a name is not applied to a line headed by its entry.
UniProt O95168, whole entry, looked up: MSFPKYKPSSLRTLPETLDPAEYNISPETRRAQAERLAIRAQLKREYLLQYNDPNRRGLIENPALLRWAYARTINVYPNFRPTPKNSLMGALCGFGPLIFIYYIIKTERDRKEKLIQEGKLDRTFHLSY
UniProt Q9UHB4: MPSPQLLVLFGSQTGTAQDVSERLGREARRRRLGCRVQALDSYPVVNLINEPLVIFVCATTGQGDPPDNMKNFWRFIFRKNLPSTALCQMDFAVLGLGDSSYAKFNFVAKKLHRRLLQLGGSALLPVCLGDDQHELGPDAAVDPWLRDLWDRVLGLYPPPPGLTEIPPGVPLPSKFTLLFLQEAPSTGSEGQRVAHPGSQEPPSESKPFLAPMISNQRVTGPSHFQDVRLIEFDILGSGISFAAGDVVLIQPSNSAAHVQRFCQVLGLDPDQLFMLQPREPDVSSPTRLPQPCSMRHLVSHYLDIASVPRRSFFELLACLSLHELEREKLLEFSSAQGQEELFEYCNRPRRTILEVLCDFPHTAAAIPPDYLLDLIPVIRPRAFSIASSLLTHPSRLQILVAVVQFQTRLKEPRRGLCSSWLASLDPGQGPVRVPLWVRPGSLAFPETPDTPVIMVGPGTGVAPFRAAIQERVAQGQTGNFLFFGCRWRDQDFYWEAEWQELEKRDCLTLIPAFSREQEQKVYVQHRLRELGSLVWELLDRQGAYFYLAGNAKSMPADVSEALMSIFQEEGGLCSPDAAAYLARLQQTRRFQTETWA
UniProt Q8NHV4, whole entry, looked up: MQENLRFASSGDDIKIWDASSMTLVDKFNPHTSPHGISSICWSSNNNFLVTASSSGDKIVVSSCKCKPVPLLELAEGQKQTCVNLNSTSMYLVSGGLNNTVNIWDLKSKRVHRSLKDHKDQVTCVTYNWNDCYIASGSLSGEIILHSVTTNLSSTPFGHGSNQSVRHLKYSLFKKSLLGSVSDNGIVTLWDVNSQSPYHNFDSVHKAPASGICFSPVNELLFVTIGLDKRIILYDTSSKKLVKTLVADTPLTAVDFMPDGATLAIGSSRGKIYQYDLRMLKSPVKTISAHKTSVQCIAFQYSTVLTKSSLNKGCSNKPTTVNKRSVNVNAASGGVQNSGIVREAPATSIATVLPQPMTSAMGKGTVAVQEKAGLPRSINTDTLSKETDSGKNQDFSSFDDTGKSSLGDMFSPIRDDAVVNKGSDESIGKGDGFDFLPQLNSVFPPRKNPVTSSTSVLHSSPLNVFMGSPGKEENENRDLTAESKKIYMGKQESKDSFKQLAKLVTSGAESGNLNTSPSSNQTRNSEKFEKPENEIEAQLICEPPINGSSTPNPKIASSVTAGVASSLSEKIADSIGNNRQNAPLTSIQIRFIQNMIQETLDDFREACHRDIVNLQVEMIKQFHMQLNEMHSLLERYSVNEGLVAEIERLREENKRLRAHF
UniProt Q9GZZ1: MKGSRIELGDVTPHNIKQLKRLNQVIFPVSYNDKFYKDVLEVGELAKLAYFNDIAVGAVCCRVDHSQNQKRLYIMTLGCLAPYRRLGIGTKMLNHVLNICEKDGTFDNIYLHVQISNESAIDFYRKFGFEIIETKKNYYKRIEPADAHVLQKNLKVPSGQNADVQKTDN
UniProt O43676, whole entry, looked up: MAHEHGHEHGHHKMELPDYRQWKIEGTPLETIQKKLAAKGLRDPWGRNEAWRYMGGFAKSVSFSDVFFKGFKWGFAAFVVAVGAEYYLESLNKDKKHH
UniProt Q9NVZ3: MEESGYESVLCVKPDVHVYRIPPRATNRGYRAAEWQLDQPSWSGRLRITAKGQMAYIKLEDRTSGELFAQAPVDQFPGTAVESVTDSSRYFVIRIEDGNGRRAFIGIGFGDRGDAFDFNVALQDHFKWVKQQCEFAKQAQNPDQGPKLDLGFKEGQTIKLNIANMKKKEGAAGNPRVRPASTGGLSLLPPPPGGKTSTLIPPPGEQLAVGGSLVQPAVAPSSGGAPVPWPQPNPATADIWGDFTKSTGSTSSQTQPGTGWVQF
UniProt Q9NXR1: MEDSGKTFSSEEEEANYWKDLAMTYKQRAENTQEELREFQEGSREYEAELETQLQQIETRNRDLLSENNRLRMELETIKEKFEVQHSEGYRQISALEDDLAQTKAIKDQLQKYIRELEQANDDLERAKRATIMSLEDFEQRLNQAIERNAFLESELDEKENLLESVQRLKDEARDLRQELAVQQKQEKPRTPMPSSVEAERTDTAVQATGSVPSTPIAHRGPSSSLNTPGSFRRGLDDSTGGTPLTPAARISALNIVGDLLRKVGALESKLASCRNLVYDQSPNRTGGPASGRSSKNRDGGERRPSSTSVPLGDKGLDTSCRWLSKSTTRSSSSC
UniProt Q96HR8: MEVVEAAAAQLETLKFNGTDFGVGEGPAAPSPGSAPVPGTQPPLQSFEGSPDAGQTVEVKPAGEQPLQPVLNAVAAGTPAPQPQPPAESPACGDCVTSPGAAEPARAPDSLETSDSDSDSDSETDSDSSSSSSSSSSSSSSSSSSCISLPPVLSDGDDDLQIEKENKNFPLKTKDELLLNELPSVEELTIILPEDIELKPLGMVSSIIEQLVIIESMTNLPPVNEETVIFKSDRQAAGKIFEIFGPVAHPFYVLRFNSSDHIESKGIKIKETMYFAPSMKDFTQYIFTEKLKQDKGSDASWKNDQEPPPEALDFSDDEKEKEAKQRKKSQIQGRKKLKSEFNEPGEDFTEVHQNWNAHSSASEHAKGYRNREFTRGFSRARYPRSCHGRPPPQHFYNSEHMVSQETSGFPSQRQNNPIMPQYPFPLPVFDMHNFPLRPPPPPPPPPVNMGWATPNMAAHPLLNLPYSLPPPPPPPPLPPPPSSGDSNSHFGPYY
UniProt Q86Y39, whole entry, looked up: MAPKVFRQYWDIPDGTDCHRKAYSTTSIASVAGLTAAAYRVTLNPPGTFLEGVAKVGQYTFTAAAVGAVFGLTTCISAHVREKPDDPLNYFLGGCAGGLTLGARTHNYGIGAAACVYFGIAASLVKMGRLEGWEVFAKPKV
UniProt Q6N069: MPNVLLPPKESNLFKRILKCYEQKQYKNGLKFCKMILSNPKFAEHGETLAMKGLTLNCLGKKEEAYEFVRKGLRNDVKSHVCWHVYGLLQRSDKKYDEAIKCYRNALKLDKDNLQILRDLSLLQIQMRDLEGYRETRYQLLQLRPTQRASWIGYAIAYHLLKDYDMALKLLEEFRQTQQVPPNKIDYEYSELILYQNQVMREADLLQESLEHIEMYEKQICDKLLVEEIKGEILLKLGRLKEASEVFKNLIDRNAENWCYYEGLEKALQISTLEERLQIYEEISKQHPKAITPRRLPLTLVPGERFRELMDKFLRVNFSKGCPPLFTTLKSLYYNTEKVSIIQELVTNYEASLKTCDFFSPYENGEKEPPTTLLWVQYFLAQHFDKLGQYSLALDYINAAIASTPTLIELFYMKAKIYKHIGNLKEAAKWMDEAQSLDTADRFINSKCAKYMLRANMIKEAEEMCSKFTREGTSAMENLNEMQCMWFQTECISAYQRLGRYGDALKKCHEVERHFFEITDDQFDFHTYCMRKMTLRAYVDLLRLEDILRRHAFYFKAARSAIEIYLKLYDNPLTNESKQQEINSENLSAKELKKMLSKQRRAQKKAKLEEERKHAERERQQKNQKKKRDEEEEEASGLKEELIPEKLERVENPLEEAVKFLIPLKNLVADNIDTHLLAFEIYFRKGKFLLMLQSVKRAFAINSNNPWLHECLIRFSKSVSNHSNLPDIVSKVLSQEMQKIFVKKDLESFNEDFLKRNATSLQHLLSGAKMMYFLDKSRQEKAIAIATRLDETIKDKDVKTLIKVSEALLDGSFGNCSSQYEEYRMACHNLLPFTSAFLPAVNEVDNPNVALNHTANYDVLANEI
UniProt Q9BTX1: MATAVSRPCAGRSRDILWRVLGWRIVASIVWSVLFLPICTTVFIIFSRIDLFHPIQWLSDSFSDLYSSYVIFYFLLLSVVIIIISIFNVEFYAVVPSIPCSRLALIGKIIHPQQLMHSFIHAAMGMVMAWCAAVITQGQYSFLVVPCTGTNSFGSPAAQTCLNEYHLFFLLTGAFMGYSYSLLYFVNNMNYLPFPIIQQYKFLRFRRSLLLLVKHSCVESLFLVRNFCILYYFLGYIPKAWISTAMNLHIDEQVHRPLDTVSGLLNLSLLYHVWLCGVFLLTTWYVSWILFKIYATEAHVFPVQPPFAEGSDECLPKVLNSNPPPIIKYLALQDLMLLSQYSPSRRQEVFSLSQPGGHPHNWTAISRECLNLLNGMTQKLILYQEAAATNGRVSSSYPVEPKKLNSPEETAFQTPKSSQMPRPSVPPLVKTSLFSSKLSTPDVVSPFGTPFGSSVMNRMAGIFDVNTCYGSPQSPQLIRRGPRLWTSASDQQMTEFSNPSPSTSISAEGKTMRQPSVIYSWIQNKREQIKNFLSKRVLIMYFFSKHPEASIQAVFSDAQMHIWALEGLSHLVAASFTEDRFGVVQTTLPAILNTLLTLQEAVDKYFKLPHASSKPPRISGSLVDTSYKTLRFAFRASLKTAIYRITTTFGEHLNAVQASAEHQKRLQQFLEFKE
UniProt O43674, whole entry, looked up: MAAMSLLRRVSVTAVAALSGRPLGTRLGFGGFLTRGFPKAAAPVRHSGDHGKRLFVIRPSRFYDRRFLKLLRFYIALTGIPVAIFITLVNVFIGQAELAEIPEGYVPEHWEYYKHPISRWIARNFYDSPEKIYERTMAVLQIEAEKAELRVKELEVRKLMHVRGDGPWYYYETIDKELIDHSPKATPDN
UniProt P62166, whole entry, looked up: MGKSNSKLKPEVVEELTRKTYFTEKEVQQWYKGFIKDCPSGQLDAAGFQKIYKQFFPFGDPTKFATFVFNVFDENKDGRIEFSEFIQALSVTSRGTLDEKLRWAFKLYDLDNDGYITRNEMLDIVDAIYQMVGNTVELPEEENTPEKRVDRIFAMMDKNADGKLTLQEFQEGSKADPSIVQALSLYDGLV
UniProt O95298, whole entry, looked up: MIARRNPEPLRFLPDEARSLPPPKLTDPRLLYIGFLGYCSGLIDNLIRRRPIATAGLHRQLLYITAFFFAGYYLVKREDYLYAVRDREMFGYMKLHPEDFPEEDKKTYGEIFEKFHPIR
UniProt Q6XQN6: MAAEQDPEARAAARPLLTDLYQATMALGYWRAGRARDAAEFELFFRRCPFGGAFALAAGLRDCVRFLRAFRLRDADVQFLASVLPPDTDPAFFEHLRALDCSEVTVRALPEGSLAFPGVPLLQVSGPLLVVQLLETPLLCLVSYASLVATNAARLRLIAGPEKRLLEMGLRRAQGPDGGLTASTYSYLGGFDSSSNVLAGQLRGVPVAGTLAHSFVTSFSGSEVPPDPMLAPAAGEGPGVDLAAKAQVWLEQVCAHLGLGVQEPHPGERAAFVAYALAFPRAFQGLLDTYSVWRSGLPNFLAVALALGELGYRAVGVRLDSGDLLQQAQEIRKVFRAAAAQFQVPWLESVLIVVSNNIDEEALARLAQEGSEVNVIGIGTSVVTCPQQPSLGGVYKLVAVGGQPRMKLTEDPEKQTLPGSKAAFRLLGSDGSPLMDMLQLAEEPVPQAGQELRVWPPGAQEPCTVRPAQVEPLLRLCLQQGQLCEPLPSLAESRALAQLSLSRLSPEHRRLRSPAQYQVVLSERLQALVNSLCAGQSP
UniProt Q5TEU4: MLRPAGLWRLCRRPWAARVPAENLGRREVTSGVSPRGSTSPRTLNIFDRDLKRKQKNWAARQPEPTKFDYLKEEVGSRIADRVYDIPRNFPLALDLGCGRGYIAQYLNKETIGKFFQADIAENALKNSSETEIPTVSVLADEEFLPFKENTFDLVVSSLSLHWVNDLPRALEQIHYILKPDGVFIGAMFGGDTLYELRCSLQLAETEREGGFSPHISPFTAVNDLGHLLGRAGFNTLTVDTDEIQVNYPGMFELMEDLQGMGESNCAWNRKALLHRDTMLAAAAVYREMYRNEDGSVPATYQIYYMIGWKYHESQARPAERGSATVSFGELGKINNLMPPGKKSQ

What was measured:
Assay in all cases: log2 fold change, soluble protein after heating vs DMSO (PISA); higher = thermal stabilisation; K562 cells, 10 uM, 30 min; active = over 0.2 and 3.5 SD of the protein, either way, in both replicates (recomputed)
[1] = compound: CS(=O)(=O)c1ccc(-c2cnc(N)c(C(=O)Nc3ccccc3)n2)cc1
Summary of the method: (§1)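 Thermal stability values are relative to control samples and come from duplicates. They are expressed as log2 fold changes. For measurement, K562 cells (2×10^6 cells/mL) received 10 μM compound for 30 min, and aliquots were heated for 3 min over 48°C-58°C, pooled, and extracted at 4°C in PBS with 0.5% NP-40. Soluble protein, the supernatant after 21,000xg for 90 min, was quantified by TMTpro 16plex LC-MS/MS with equalised channel sums.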

[2] = compound: C[C@@H](Oc1cc(-c2cnn(C3CCNCC3)c2)cnc1N)c1c(Cl)ccc(F)c1Cl [crizotinib]
Summary of the method: as §1

[3] = compound: C[C@@H]1COCCN1C2=NC(=NC(=C2)C3(CC3)S(=O)(=O)C)C4=C5C=CNC5=CC=C4
Summary of the method: as §1

[4] = compound: C[C@H](C1=CC=C(C=C1)C(=O)NC2=C3C=CNC3=NC=C2)N
Summary of the method: as §1

[5] = compound: C[C@H](Nc1ncnc2nc[nH]c12)c1cc2cccc(Cl)c2c(=O)n1-c1ccccc1 [duvelisib]
Summary of the method: as §1

[6] = compound: Cc1cc(Nc2cc(CN3CCOCC3)c3nc(C)c(Cc4ccc(Cl)cc4F)n3n2)n[nH]1 [gandotinib]
Summary of the method: as §1

[7] = compound: Cc1cc(Nc2cc(N3CCN(C)CC3)nc(Sc3ccc(NC(=O)C4CC4)cc3)n2)n[nH]1 [tozasertib]
Summary of the method: as §1

[8] = compound: Cc1cc(SCc2sc(-c3ccc(C(F)(F)F)cc3)nc2C)ccc1OCC(=O)O
Summary of the method: as §1

[9] = compound: Cc1ccc(-n2nc(C(C)(C)C)cc2NC(=O)Nc2ccc(OCCN3CCOCC3)c3ccccc23)cc1 [doramapimod]
Summary of the method: as §1

[10] = compound: Cc1ccc(C(=O)N(CCCN)[C@@H](c2nc3cc(Cl)ccc3c(=O)n2Cc2ccccc2)C(C)C)cc1 [ispinesib]
Summary of the method: as §1

[11] = compound: Cc1ccc(NC(=O)c2ccc(CN3CC[C@H](N(C)C)C3)c(C(F)(F)F)c2)cc1Nc1nccc(-c2cncnc2)n1 [bafetinib]
Summary of the method: as §1

[12] = compound: Cc1cccc(CC(=O)N2CCc3c2ccc(-c2cn(C)c4ncnc(N)c24)c3F)n1
Summary of the method: as §1

[13] = compound: Cc1cn(-c2cc(NC(=O)c3ccc(C)c(Nc4nccc(-c5cccnc5)n4)c3)cc(C(F)(F)F)c2)cn1 [nilotinib]
Summary of the method: as §1

[14] = compound: Cc1nc(Nc2n[nH]c3c2CN(C(=O)N[C@H](CN(C)C)c2ccccc2)C3(C)C)c2sccc2n1
Summary of the method: as §1

[15] = compound: Cc1nc(Nc2ncc(C(=O)Nc3c(C)cccc3Cl)s2)cc(N2CCN(CCO)CC2)n1 [dasatinib]
Summary of the method: as §1

[16] = compound: Cc1ncc(-c2ccnc(Nc3ccc(S(C)(=O)=O)cc3)n2)n1C(C)C
Summary of the method: as §1

[17] = compound: Cn1cc(-c2ccc3c(c2)CCN3C(=O)Cc2cccc(C(F)(F)F)c2)c2c(N)ncnc21
Summary of the method: as §1

[18] = compound: Cn1cc(-c2ccc3nnc(C(F)(F)c4ccc5ncccc5c4)n3n2)cn1
Summary of the method: as §1

[19] = compound: Cn1cncc1[C@@](N)(c1ccc(Cl)cc1)c1ccc2c(c1)c(-c1cccc(Cl)c1)cc(=O)n2C [tipifarnib]
Summary of the method: as §1

[20] = compound: FC(F)(F)c1ccc(/C=C/c2nc(COc3ccc(CCCCn4ccnn4)cc3)co2)cc1 [mubritinib]
Summary of the method: as §1

Measured: log2 fold change

NDUFB4 (UniProt O95168)
inactive: [1] 0.024 | [2] 0.094 | [3] 0.096 | [4] -0.01 | [5] 0.019 | [6] 0.089 | [7] 0.012 | [8] 0.021 | [9] -0.029 | [10] -0.032 | [11] -0.137 | [12] 0.014 | [13] 0.034 | [14] -0.017 | [15] -0.029 | [16] 0.005 | [17] 0.092 | [18] 0.031 | [19] 0.064 | [20] 0.044

NDOR1 isoform 2 (UniProt Q9UHB4)
inactive: [1] 0.098 | [2] 0.08 | [3] 0.047 | [4] -0.014 | [5] 0.063 | [6] 0.029 | [7] -0.006 | [8] 0.012 | [9] -0.035 | [10] 0.007 | [11] -0.08 | [12] 0.055 | [13] 0.035 | [14] -0.07 | [15] -0.087 | [16] 0.041 | [17] 0.085 | [18] 0 | [19] 0.032 | [20] -0.084

NEDD1 isoform 3 (UniProt Q8NHV4)
inactive: [1] 0 | [2] 0.016 | [3] -0.006 | [4] -0.027 | [5] 0.041 | [6] -0.049 | [7] -0.027 | [8] -0.024 | [9] 0.001 | [10] 0.019 | [11] 0.025 | [12] -0.013 | [13] 0.061 | [14] 0.055 | [15] -0.015 | [16] -0.137 | [17] 0.019 | [18] -0.003 | [19] 0.072 | [20] 0.048

NAA50 (UniProt Q9GZZ1)
inactive: [1] -0.002 | [2] 0.011 | [3] 0.027 | [4] -0.153 | [5] 0.034 | [6] 0.05 | [7] -0.017 | [8] 0.009 | [9] -0.095 | [10] 0.079 | [11] -0.042 | [12] 0.06 | [13] -0.003 | [14] -0.055 | [15] -0.011 | [16] 0.033 | [17] 0.036 | [18] 0.011 | [19] -0.053 | [20] -0.079

NDUFB3 (UniProt O43676)
inactive: [1] 0.019 | [2] -0.044 | [3] 0 | [4] -0.022 | [5] 0.04 | [6] -0.054 | [7] -0.033 | [8] 0.018 | [9] -0.002 | [10] -0.005 | [11] -0.075 | [12] -0.078 | [13] 0.003 | [14] 0.023 | [15] 0.027 | [16] -0.029 | [17] 0.012 | [18] 0.043 | [19] 0.057 | [20] 0.039

NECAP2 (UniProt Q9NVZ3)
inactive: [1] 0.028 | [2] -0.006 | [3] 0.022 | [4] -0.119 | [5] 0.02 | [6] -0.058 | [7] -0.055 | [8] -0.06 | [9] -0.037 | [10] 0.098 | [11] 0.009 | [12] 0.052 | [13] 0.045 | [14] -0.07 | [15] -0.081 | [16] -0.023 | [17] 0.038 | [18] -0.007 | [19] -0.112 | [20] 0.083

NDE1 isoform 1 (UniProt Q9NXR1)
inactive: [1] -0.027 | [2] 0.026 | [3] 0.026 | [4] -0.041 | [5] 0.026 | [6] 0.022 | [7] -0.041 | [8] -0.003 | [9] 0.014 | [10] -0.009 | [11] -0.008 | [12] -0.031 | [13] 0.024 | [14] 0.001 | [15] 0.069 | [16] -0.016 | [17] 0.012 | [18] -0.002 | [19] 0.053 | [20] 0.083

NAF1 (UniProt Q96HR8)
inactive: [1] -0.009 | [2] 0.008 | [3] -0.071 | [4] 0.068 | [5] -0.053 | [6] 0.105 | [7] 0.012 | [8] -0.041 | [9] -0.035 | [10] 0.047 | [11] -0.032 | [12] -0.036 | [13] -0.006 | [14] 0.066 | [15] 0.108 | [16] 0.039 | [17] 0.026 | [18] -0.019 | [19] -0.039 | [20] 0.014

NDUFA11 (UniProt Q86Y39)
inactive: [1] 0.019 | [2] 0.057 | [3] 0.137 | [4] -0.097 | [5] 0.057 | [6] -0.023 | [7] 0.029 | [8] -0.004 | [9] -0.054 | [10] 0 | [11] -0.073 | [12] -0.052 | [13] -0.094 | [14] 0.026 | [15] 0.034 | [16] -0.015 | [17] 0.016 | [18] -0.004 | [19] 0.071 | [20] 0.017

NAA16 (UniProt Q6N069)
inactive: [1] -0.005 | [2] -0.047 | [3] 0.052 | [4] 0.017 | [5] 0.019 | [6] 0.012 | [7] -0.021 | [8] 0.021 | [9] 0.045 | [10] 0.005 | [11] -0.029 | [12] -0.055 | [13] 0.013 | [14] 0.006 | [15] -0.087 | [16] -0.061 | [17] 0.028 | [18] -0.069 | [19] 0.02 | [20] -0.046

NDC1 (UniProt Q9BTX1)
inactive: [1] 0.03 | [2] 0.046 | [3] 0.058 | [4] -0.081 | [5] -0.001 | [6] 0.076 | [7] 0.026 | [8] 0 | [9] -0.01 | [10] -0.034 | [11] -0.128 | [12] 0.016 | [13] 0.002 | [14] -0.002 | [15] 0.02 | [16] -0.015 | [17] 0.016 | [18] 0.05 | [19] -0.018 | [20] 0.024

NDUFB5 (UniProt O43674)
inactive: [1] -0.01 | [2] -0.053 | [3] 0.028 | [4] -0.072 | [5] -0.024 | [6] 0.02 | [7] 0.01 | [8] -0.029 | [9] 0.012 | [10] -0.146 | [11] -0.141 | [12] 0.013 | [13] -0.008 | [14] 0.003 | [15] 0.044 | [16] -0.017 | [17] -0.009 | [18] 0.002 | [19] -0.001 | [20] 0.038

NCS1 (UniProt P62166)
inactive: [1] 0.012 | [2] -0.017 | [3] 0.019 | [4] -0.004 | [5] 0.047 | [6] 0.023 | [7] 0.029 | [8] 0.056 | [9] 0.01 | [10] -0.246 | [11] -0.088 | [12] 0.043 | [13] -0.008 | [14] 0.018 | [15] -0.059 | [16] -0.018 | [17] -0.011 | [18] -0.046 | [19] 0.032 | [20] -0.002

NDUFC2 (UniProt O95298)
inactive: [1] 0.005 | [2] -0.013 | [3] 0.103 | [4] -0.018 | [5] 0.033 | [6] 0.081 | [7] -0.025 | [8] -0.008 | [9] 0.098 | [10] -0.112 | [11] -0.031 | [12] -0.071 | [13] 0.035 | [14] -0.009 | [15] 0.068 | [16] -0.015 | [17] 0.107 | [18] 0.114 | [19] -0.052 | [20] 0.021

NAPRT (UniProt Q6XQN6)
inactive: [1] -0.017 | [2] 0.031 | [3] 0.026 | [4] -0.073 | [5] 0.028 | [6] 0.004 | [7] -0.024 | [8] -0.032 | [9] -0.03 | [10] 0.055 | [11] -0.027 | [12] -0.023 | [13] -0.02 | [14] 0.009 | [15] 0.04 | [16] 0 | [17] 0.042 | [18] 0.048 | [19] 0 | [20] 0.045

NDUFAF5 (UniProt Q5TEU4)
inactive: [1] -0.018 | [2] 0.05 | [3] 0.004 | [4] -0.057 | [5] 0.045 | [6] -0.11 | [7] -0.015 | [8] 0.016 | [9] 0 | [10] 0.129 | [11] 0.019 | [12] 0.025 | [13] -0.053 | [14] 0.064 | [15] -0.03 | [16] 0.01 | [17] 0.024 | [18] 0.181 | [19] 0.066 | [20] 0.123
